In patent US12419871B2, “Biomolecules involved in Alzheimer's disease” (ELECTROPHORETICS LIMITED, priority 2015, dated 2025):

B1: Q13136 (protein, UniProt Q13136 1-1202, looked up)
chain: MMCEVMPTISEAEGPPGGGGGHGSGSPSQPDADSHFEQLMVSMLEERDRLLDTLRETQETLALTQGKLHEVGHERDSLQRQLNTALPQEFAALTKELNVCREQLLEREEEIAELKAERNNTRLLLEHLECLVSRHERSLRMTVVKRQAQSPAGVSSEVEVLKALKSLFEHHKALDEKVRERLRVALERCSLLEEELGATHKELMILKEQNNQKKTLTDGVLDINHEQENTPSTSGKRSSDGSLSHEEDLAKVIELQEIISKQSREQSQMKERLASLSSHVTELEEDLDTARKDLIKSEEMNTKLQRDVREAMAQKEDMEERITTLEKRYLAAQREATSVHDLNDKLENEIANKDSMHRQTEDKNRQLQERLELAEQKLQQTLRKAETLPEVEAELAQRVAALSKAEERHGNIEERLRQMEAQLEEKNQELQRARQREKMNEEHNKRLSDTVDKLLSESNERLQLHLKERMAALEDKNSLLREVESAKKQLEETQHDKDQLVLNIEALRAELDHMRLRGASLHHGRPHLGSVPDFRFPMADGHTDSYSTSAVLRRPQKGRLAALRDEPSKVQTLNEQDWERAQQASVLANVAQAFESDADVSDGEDDRDTLLSSVDLLSPSGQADAHTLAMMLQEQLDAINKEIRLIQEEKENTEQRAEEIESRVGSGSLDNLGRFRSMSSIPPYPASSLASSSPPGSGRSTPRRIPHSPAREVDRLGVMTLLPPSREEVRDDKTTIKCETSPPSSPRALRLDRLHKGALHTVSHEDIRDIRNSTGSQDGPVSNPSSSNSSQDSLHKAPKKKGIKSSIGRLFGKKEKGRPGQTGKEALGQAGVSETDNSSQDALGLSKLGGQAEKNRKLQKKHELLEEARRQGLPFAQWDGPTVVVWLELWVGMPAWYVAACRANVKSGAIMSALSDTEIQREIGISNPLHRLKLRLAIQEIMSLTSPSAPPTSRTTLAYGDMNHEWIGNEWLPSLGLPQYRSYFMECLVDARMLDHLTKKDLRGQLKMVDSFHRNSFQCGIMCLRRLNYDRKELERKREESQSEIKDVLVWSNDRVIRWILSIGLKEYANNLIESGVHGALLALDETFDFSALALLLQIPTQNTQARAVLEREFNNLLVMGTDRRFDEDDDKSFRRAPSWRKKFRPKDIRGLAAGSAETLPANFRVTSSMSSPSMQPKKMQMDGNVSGTQRLDSATVRTYSC
modifications: full-length
B2: P01042 (protein, UniProt P01042 1-644, looked up)
chain: MKLITILFLCSRLLLSLTQESQSEEIDCNDKDLFKAVDAALKKYNSQNQSNNQFVLYRITEATKTVGSDTFYSFKYEIKEGDCPVQSGKTWQDCEYKDAAKAATGECTATVGKRSSTKFSVATQTCQITPAEGPVVTAQYDCLGCVHPISTQSPDLEPILRHGIQYFNNNTQHSSLFMLNEVKRAQRQVVAGLNFRITYSIVQTNCSKENFLFLTPDCKSLWNGDTGECTDNAYIDIQLRIASFSQNCDIYPGKDFVQPPTKICVGCPRDIPTNSPELEETLTHTITKLNAENNATFYFKIDNVKKARVQVVAGKKYFIDFVARETTCSKESNEELTESCETKKLGQSLDCNAEVYVVPWEKKIYPTVNCQPLGMISLMKRPPGFSPFRSSRIGEIKEETTVSPPHTSMAPAQDEERDSGKEQGHTRRHDWGHEKQRKHNLGHGHKHERDQGHGHQRGHGLGHGHEQQHGLGHGHKFKLDDDLEHQGGHVLDHGHKHKHGHGHGKHKNKGKKNGKHNGWKTEHLASSSEDSTTPSAQTQEKTEGPTPIPSLAKPGVTVTFSDFQDSDLIATMMPPISPAPIQSDDDWIPDIQIDPNGLSFNPISDFPDTTSPKCPGRPWKSVSEINPTTQMKESYYFDLTDGLS
modifications: full-length
B3: O95573 (protein, UniProt O95573 1-720, looked up)
chain: MNNHVSSKPSTMKLKHTINPILLYFIHFLISLYTILTYIPFYFFSESRQEKSNRIKAKPVNSKPDSAYRSVNSLDGLASVLYPGCDTLDKVFTYAKNKFKNKRLLGTREVLNEEDEVQPNGKIFKKVILGQYNWLSYEDVFVRAFNFGNGLQMLGQKPKTNIAIFCETRAEWMIAAQACFMYNFQLVTLYATLGGPAIVHALNETEVTNIITSKELLQTKLKDIVSLVPRLRHIITVDGKPPTWSEFPKGIIVHTMAAVEALGAKASMENQPHSKPLPSDIAVIMYTSGSTGLPKGVMISHSNIIAGITGMAERIPELGEEDVYIGYLPLAHVLELSAELVCLSHGCRIGYSSPQTLADQSSKIKKGSKGDTSMLKPTLMAAVPEIMDRIYKNVMNKVSEMSSFQRNLFILAYNYKMEQISKGRNTPLCDSFVFRKVRSLLGGNIRLLLCGGAPLSATTQRFMNICFCCPVGQGYGLTESAGAGTISEVWDYNTGRVGAPLVCCEIKLKNWEEGGYFNTDKPHPRGEILIGGQSVTMGYYKNEAKTKADFFEDENGQRWLCTGDIGEFEPDGCLKIIDRKKDLVKLQAGEYVSLGKVEAALKNLPLVDNICAYANSYHSYVIGFVVPNQKELTELARKKGLKGTWEELCNSCEMENEVLKVLSEAAISASLEKFEIPVKIRLSPEPWTPETGLVTDAFKLKRKELKTHYQADIERMYGRK
modifications: full-length
B4: Q9UIC8 (protein, UniProt Q9UIC8 1-334, looked up)
chain: MATRQRESSITSCCSTSSCDADDEGVRGTCEDASLCKRFAVSIGYWHDPYIQHFVRLSKERKAPEINRGYFARVHGVSQLIKAFLRKTECHCQIVNLGAGMDTTFWRLKDEDLLPSKYFEVDFPMIVTRKLHSIKCKPPLSSPILELHSEDTLQMDGHILDSKRYAVIGADLRDLSELEEKLKKCNMNTQLPTLLIAECVLVYMTPEQSANLLKWAANSFERAMFINYEQVNMGDRFGQIMIENLRRRQCDLAGVETCKSLESQKERLLSNGWETASAVDMMELYNRLPRAEVSRIESLEFLDEMELLEQLMRHYCLCWATKGGNELGLKEITY
modifications: full-length
B5: P10619 (protein, UniProt P10619 1-480, looked up)
chain: MIRAAPPPLFLLLLLLLLLVSWASRGEAAPDQDEIQRLPGLAKQPSFRQYSGYLKGSGSKHLHYWFVESQKDPENSPVVLWLNGGPGCSSLDGLLTEHGPFLVQPDGVTLEYNPYSWNLIANVLYLESPAGVGFSYSDDKFYATNDTEVAQSNFEALQDFFRLFPEYKNNKLFLTGESYAGIYIPTLAVLVMQDPSMNLQGLAVGNGLSSYEQNDNSLVYFAYYHGLLGNRLWSSLQTHCCSQNKCNFYDNKDLECVTNLQEVARIVGNSGLNIYNLYAPCAGGVPSHFRYEKDTVVVQDLGNIFTRLPLKRMWHQALLRSGDKVRMDPPCTNTTAASTYLNNPYVRKALNIPEQLPQWDMCNFLVNLQYRRLYRSMNSQYLKLLSSQKYQILLYNGDVDMACNFMGDEWFVDSLNQKMEVQRRPWLVKYGDSGEQIAGFVKEFSHIAFLTIKGAGHMVPTDKPLAAFTMFSRFLNKQPY
modifications: full-length
B6: Q04760 (protein, UniProt Q04760 1-184, looked up)
chain: MAEPQPPSGGLTDEAALSCCSDADPSTKDFLLQQTMLRVKDPKKSLDFYTRVLGMTLIQKCDFPIMKFSLYFLAYEDKNDIPKEKDEKIAWALSRKATLELTHNWGTEDDETQSYHNGNSDPRGFGHIGIAVPDVYSACKRFEELGVKFVKKPDDGKMKGLAFIQDPDGYWIEILNPNKMATLM
modifications: full-length
B7: Q9NZW5 (protein, UniProt Q9NZW5 1-540, looked up)
chain: MQQVLENLTELPSSTGAEEIDLIFLKGIMENPIVKSLAKAHERLEDSKLEAVSDNNLELVNEILEDITPLINVDENVAELVGILKEPHFQSLLEAHDIVASKCYDSPPSSPEMNNSSINNQLLPVDAIRILGIHKRAGEPLGVTFRVENNDLVIARILHGGMIDRQGLLHVGDIIKEVNGHEVGNNPKELQELLKNISGSVTLKILPSYRDTITPQQVFVKCHFDYNPYNDNLIPCKEAGLKFSKGEILQIVNREDPNWWQASHVKEGGSAGLIPSQFLEEKRKAFVRRDWDNSGPFCGTISSKKKKKMMYLTTRNAEFDRHEIQIYEEVAKMPPFQRKTLVLIGAQGVGRRSLKNRFIVLNPTRFGTTVPFTSRKPREDEKDGQAYKFVSRSEMEADIKAGKYLEHGEYEGNLYGTKIDSILEVVQTGRTCILDVNPQALKVLRTSEFMPYVVFIAAPELETLRAMHKAVVDAGITTKLLTDSDLKKTVDESARIQRAYNHYFDLIIINDNLDKAFEKLQTAIEKLRMEPQWVPISWVY
modifications: full-length
B8: Q6F5E8 (protein, UniProt Q6F5E8 1-1435, looked up)
chain: MAQTPDGISCELRGEITRFLWPKEVELLLKTWLPGEGAVQNHVLALLRWRAYLLHTTCLPLRVDCTFSYLEVQAMALQETPPQVTFELESLRELVLEFPGVAALEQLAQHVAAAIKKVFPRSTLGKLFRRPTPASMLARLERSSPSESTDPCSPCGGFLETYEALCDYNGFPFREEIQWDVDTIYHRQGCRHFSLGDFSHLGSRDLALSVAALSYNLWFRCLSCVDMKLSLEVSEQILHMMSQSSHLEELVLETCSLRGDFVRRLAQALAGHSSSGLRELSLAGNLLDDRGMTALSRHLERCPGALRRLSLAQTGLTPRGMRALGRALATNAAFDSTLTHLDLSGNPGALGASEDSGGLYSFLSRPNVLSFLNLAGTDTALDTVRGCSVGGWMTGRADWRAGRGGLGPPAGVANSLPPQLFAAVSRGCCTSLTHLDASRNVFSRTKSRAAPAALQLFLSRARTLRHLGLAGCKLPPDALRALLDGLALNTHLRDLHLDLSACELRSAGAQVIQDLVCDAGAVSSLDLADNGFGSDMVTLVLAIGRSRSLRHVALGRNFNVRCKETLDDVLHRIVQLMQDDDCPLQSLSVAESRLKLGASVLLRALATNPNLTALDISGNAMGDAGAKLLAKALRVNSRLRSVVWDRNHTSALGLLDVAQALEQNHSLKAMPLPLNDVAQAQRSRPELTARAVHQIQACLLRNNRADPASSDHTTRLQPLGLVSDPSEQEVNELCQSVQEHVELLGCGAGPQGEAAVRQAEDAIQNANFSLSILPILYEAGSSPSHHWQLGQKLEGLLRQVGEVCRQDIQDFTQATLDTARSLCPQMLQGSSWREQLEGVLAGSRGLPELLPEQLLQDAFTRLRDMRLSITGTLAESIVAQALAGLSAARDQLVESLAQQATVTMPPALPAPDGGEPSLLEPGELEGLFFPEEKEEEKEKDDSPPQKWPELSHGLHLVPFIHSAAEEAEPEPELAAPGEDAEPQAGPSARGSPSPAAPGPPAGPLPRMDLPLAGQPLRHPTRARPRPRRQHHHRPPPGGPQVPPALPQEGNGLSARVDEGVEEFFSKRLIQQDRLWAPEEDPATEGGATPVPRTLRKKLGTLFAFKKPRSTRGPRTDLETSPGAAPRTRKTTFGDLLRPPTRPSRGEELGGAEGDTSSPDPAGRSRPRYTRDSKAYSMILLPAEEEATLGARPDKRRPLERGETELAPSFEQRVQVMLQRIGVSRGSGGAEGKRKQSKDGEIKKAGSDGDIMDSSTEAPPISIKSRTHSVSADPSCRPGPGSQGPESATWKTLGQQLNAELRSRGWGQQDGPGPPSPGQSPSPCRTSPSPDSLGLPEDPCLGPRNEDGQLRPRPLSAGRRAVSVHEDQLQAPAERPLRLQRSPVLKRRPKLEAPPSPSLGSGLGTEPLPPQPTEPSSPERSPPSPATDQRGGGPNP
modifications: full-length
B9: Q8N3F0 (protein, UniProt Q8N3F0 1-131, looked up)
chain: MDFQQLADVAEKWCSNTPFELIATEETERRMDFYADPGVSFYVLCPDNGCGDNFHVWSESEDCLPFLQLAQDYISSCGKKTLHEVLEKVFKSFRPLLGLPDADDDAFEEYSADVEEEEPEADHPQMGVSQQ
modifications: full-length

Experiment: TMTcalibrator quantification of regulated proteins in AD CSF versus control
Design: species or system human
Settings: CSF of AD patient versus control; non-modified peptides of each protein summed for three control and three AD cases

Molecule | Log2 AD/Control
B1 | 0.85
B2 | −0.67
B3 | 0.82
B4 | 1.10
B5 | 0.70
B6 | 0.71
B7 | 0.72
B8 | −1.05
B9 | 0.89
